# Results: PubChem BioAssay AID504834 (National Center for Advancing Translational Sciences (NCATS), 2011)
# Hit rate of the full screen: of about 320,000 compounds, about 22,000 (6.9%) were called active. This list was built around the results that the source calls inconclusive (neither active nor inactive); the mix of calls is not that of the screen. Calls come from the whole dose curve; as a rule, active = well fitted inhibition curve with a large enough effect; inconclusive = small, poorly fitted or top-dose-only effect, or another doubt; inactive = no such curve, though single readings can be large or run the other way. A potency beside an inconclusive call is a rough fit, not a confirmed value.
# Assay: Primary qHTS for delayed death inhibitors of the malarial parasite plastid, 96 hour incubation
# Settings: P. falciparum luciferase reporter growth; series mostly up to 28.7 µM; activity change, negative = inhibition: at the top concentration
# Summary of the method: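 Compounds incubated with erythrocytes infected by luciferase-expressing P. falciparum (2% hematocrit, 0.05% parasitemia final) for 96 hours, 37 C in 5% CO2. Growth inhibition scored as decreased luciferase luminescence.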
# % is set by controls: 0 for no effect and ±100 for the full control effect; potency is the fitted concentration of half-maximal effect.
SMILES,Potency,"activity change, negative = inhibition"
COc1ccccc1NC(=O)CNC(c1ccccc1)c1ccccc1,"inconclusive: 8.28 µM [inhibitor, partial curve, poor fit]",
CC(=O)c1nn(-c2ccc(Br)cc2)cc1C(=O)c1ccccc1,"inconclusive: 2.94 µM [inhibitor, full curve]",
COC(=O)c1ccc(CSc2nnc(CS(=O)Cc3ccc(Br)cc3)n2-c2ccccc2)cc1 (centres undefined),"inconclusive: 18.5 µM [inhibitor, single point]",
CC(Sc1nnc(Cc2ccccc2)n1C)C(=O)NC1CC1 (centres undefined),,inactive: -24.7%
Cc1ccccc1CN1CCN(Cc2ccc3cccc(F)c3n2)CC1CCO (centres undefined),"inconclusive: 2.33 µM [inhibitor, partial curve, poor fit]",
COC(=O)C1=CN(Cc2cccs2)C=C(C(=O)OC)C1c1cccc(Cl)c1,"inconclusive: 18.5 µM [inhibitor, single point]",
COc1cc(Cl)ccc1OCc1cc(C(=O)N(C)C2CCOC2)no1 (centres undefined),"inconclusive: 18.5 µM [inhibitor, single point]",
Cc1ccc(/C(O)=C2/C(=O)C(=O)OC2c2ccc(Cl)cc2)cc1 (centres undefined),,inactive: 72.4%
CCOc1ccc(NC(=O)NCC2CCN(c3ccc(OC)cc3)C2)cc1 (centres undefined),"inconclusive: 6.57 µM [inhibitor, partial curve, poor fit]",
Cc1ccc(C(=O)N2CCN(c3ncccn3)CC2)cc1,,inactive: 18.3%
CC(C)N(C(=O)CSc1nnc(NC(=O)c2cccs2)s1)C(C)C,active: 10.4 µM,
Cc1ccc(NC(=O)C2CCC2)cc1S(=O)(=O)N1CCCCCC1,"inconclusive: 8.28 µM [inhibitor, partial curve, poor fit]",
COc1cc2c(cc1OC)CN(Cc1cccs1)CC2,"inconclusive: 14.7 µM [inhibitor, single point]",
COCC(=O)NNS(=O)(=O)c1ccccc1[N+](=O)[O-],"inconclusive: 4.15 µM [inhibitor, partial curve, poor fit]",
O=C(COc1ccc2c(-c3ccccc3)cc(=O)oc2c1)NCCCN1CCOCC1,"inconclusive: 18.5 µM [inhibitor, single point]",
Cc1ccsc1C(=O)N(CC(C)C)c1c(N)n(Cc2ccccc2)c(=O)[nH]c1=O,,inactive: -21.9%
Cc1ccc(C(=O)NCC(=O)N2CCN(c3ccccc3)CC2)cc1,,inactive: 0.589%
Cc1ccc2c(COn3nnc4ccc(S(=O)(=O)N(C)C)cc43)cc(=O)oc2c1C,active: 10.4 µM,
CC(OC(=O)c1ccc2c(=O)n3c(nc2c1)CCC3)C(=O)Nc1ccc(C(N)=O)cc1 (centres undefined),,inactive: 2.46%
COc1ccc(Cn2c3nc4ccccc4nc3c3c(=O)n(Cc4ccco4)c(C)nc32)cc1,"inconclusive: 11.7 µM [inhibitor, single point]",
O=C(C1CCN(S(=O)(=O)c2ccc(Cl)cc2)CC1)N1CCC1,"inconclusive: 18.5 µM [inhibitor, single point]",
O=C(COc1ccccc1[N+](=O)[O-])Nc1ccc(N2CCN(C(=O)c3cccs3)CC2)cc1,,inactive: -28.9%
COC(=O)CNc1cc(S(=O)(=O)N2CCCCC2)ccc1Oc1ccc(C(=O)OC)cc1,"inconclusive: 9.28 µM [inhibitor, single point]",

# A draw from above in order of molar mass, high to low.
SMILES,Potency,"activity change, negative = inhibition"
COC(=O)c1ccc(CSc2nnc(CS(=O)Cc3ccc(Br)cc3)n2-c2ccccc2)cc1 (centres undefined),"inconclusive: 18.5 µM [inhibitor, single point]",
O=C(COc1ccccc1[N+](=O)[O-])Nc1ccc(N2CCN(C(=O)c3cccs3)CC2)cc1,,inactive: -28.9%
COC(=O)CNc1cc(S(=O)(=O)N2CCCCC2)ccc1Oc1ccc(C(=O)OC)cc1,"inconclusive: 9.28 µM [inhibitor, single point]",
Cc1ccc2c(COn3nnc4ccc(S(=O)(=O)N(C)C)cc43)cc(=O)oc2c1C,active: 10.4 µM,
O=C(COc1ccc2c(-c3ccccc3)cc(=O)oc2c1)NCCCN1CCOCC1,"inconclusive: 18.5 µM [inhibitor, single point]",
CC(OC(=O)c1ccc2c(=O)n3c(nc2c1)CCC3)C(=O)Nc1ccc(C(N)=O)cc1 (centres undefined),,inactive: 2.46%
Cc1ccsc1C(=O)N(CC(C)C)c1c(N)n(Cc2ccccc2)c(=O)[nH]c1=O,,inactive: -21.9%
Cc1ccccc1CN1CCN(Cc2ccc3cccc(F)c3n2)CC1CCO (centres undefined),"inconclusive: 2.33 µM [inhibitor, partial curve, poor fit]",
CC(C)N(C(=O)CSc1nnc(NC(=O)c2cccs2)s1)C(C)C,active: 10.4 µM,
CCOc1ccc(NC(=O)NCC2CCN(c3ccc(OC)cc3)C2)cc1 (centres undefined),"inconclusive: 6.57 µM [inhibitor, partial curve, poor fit]",
COc1cc(Cl)ccc1OCc1cc(C(=O)N(C)C2CCOC2)no1 (centres undefined),"inconclusive: 18.5 µM [inhibitor, single point]",
COc1ccccc1NC(=O)CNC(c1ccccc1)c1ccccc1,"inconclusive: 8.28 µM [inhibitor, partial curve, poor fit]",
O=C(C1CCN(S(=O)(=O)c2ccc(Cl)cc2)CC1)N1CCC1,"inconclusive: 18.5 µM [inhibitor, single point]",
Cc1ccc(C(=O)NCC(=O)N2CCN(c3ccccc3)CC2)cc1,,inactive: 0.589%
Cc1ccc(/C(O)=C2/C(=O)C(=O)OC2c2ccc(Cl)cc2)cc1 (centres undefined),,inactive: 72.4%
CC(Sc1nnc(Cc2ccccc2)n1C)C(=O)NC1CC1 (centres undefined),,inactive: -24.7%
COCC(=O)NNS(=O)(=O)c1ccccc1[N+](=O)[O-],"inconclusive: 4.15 µM [inhibitor, partial curve, poor fit]",
Cc1ccc(C(=O)N2CCN(c3ncccn3)CC2)cc1,,inactive: 18.3%

# Further records:

SMILES,Potency,"activity change, negative = inhibition"
COCc1nnc(NC(=O)c2ccc(NC(C)=O)cc2)s1,"inconclusive: 8.28 µM [inhibitor, partial curve, poor fit]",
O=C(CCCN1C(=O)c2ccccc2C1=O)Nc1ccc(Br)cn1,"inconclusive: 10.4 µM [inhibitor, single point]",
COC(=O)C1=C(C(=O)OC)[C@@H]2N(C)c3ccccc3[C@@]23C[C@@H](C(=O)OC)N(C(=O)CC(C)C)C3=N1,"inconclusive: 18.5 µM [inhibitor, single point]",
O=C(CSc1ncnc2sccc12)Nc1ccc(S(=O)(=O)N2CCOCC2)cc1,"inconclusive: 8.28 µM [inhibitor, partial curve]",
O=C(C1CCN(S(=O)(=O)c2ccc(Br)s2)CC1)N1CCN(C2CCCCC2)CC1,active: 4.65 µM,
CCNC(=O)CN(c1ccc(Oc2ccccc2)cc1)S(=O)(=O)c1ccccc1,,inactive: -3.13%
Cc1cc(NC(=O)c2ccc(C)s2)n(-c2nc3ccccc3[nH]2)n1,"inconclusive: 0.131 µM [inhibitor, full curve, poor fit]",
Cc1cc(Cl)ccc1Oc1ccc(C(N)=O)cc1[N+](=O)[O-],"inconclusive: 8.28 µM [inhibitor, single point]",
Nc1ccc(Br)c[n+]1Cc1cccc2cccnc12,active: 10.4 µM,
CSc1nnc(-c2ccc(O)cc2)n1C,"inconclusive: 10.4 µM [inhibitor, single point]",
O=C(Nc1ccc2c(c1)OCCO2)c1ccc(Cl)c(Cl)c1,"inconclusive: 18.5 µM [inhibitor, single point]",
Cc1cc(OCc2cc(C(=O)N3CCCCCC3)no2)cc(C)c1Cl,"inconclusive: 13.1 µM [inhibitor, single point]",
O=C(COc1cccc2ccccc12)N1c2ccccc2CCc2ccccc21,"inconclusive: 10.4 µM [inhibitor, partial curve, poor fit]",
CCCCNC(=O)[C@@](CC)(ONc1ccccc1C(F)(F)F)c1cccc2ccccc12,"inconclusive: 10.4 µM [inhibitor, partial curve]",
CC1CC2(O)c3no[n+]([O-])c3CCC2N1O (centres undefined),active: 10.4 µM,
CCOc1ccc(NC(=O)CN(C)C(=O)CCCOc2ccc(Br)cc2)cc1OCC,"inconclusive: 11.7 µM [inhibitor, partial curve, poor fit]",
CC(=O)c1c(C)n(-c2ccc(C)cc2)c2ccc(O)cc12,active: 7.38 µM,
O=C(NCc1ccc(F)cc1)C(c1ccccc1)N(CC1CCCO1)C(=O)Cn1nnc2ccccc21 (centres undefined),"inconclusive: 10.4 µM [inhibitor, single point]",
Cc1nn(C)cc1S(=O)(=O)Nc1ccc2c(c1)OCCO2,"inconclusive: 18.5 µM [inhibitor, single point]",
COc1cc2c(cc1OC)C(COc1ccccc1OC)N(C(C)=O)CC2 (centres undefined),,inactive: -4.75%
Cc1ccc(C(=O)C2=C(O)C(=O)N(CC3CCCO3)C2c2ccccc2F)o1 (centres undefined),"inconclusive: 10.4 µM [inhibitor, partial curve]",
COc1ccc(CCNC(=O)c2ccc(NS(=O)(=O)c3ccc4[nH]c(=O)[nH]c4c3)cc2)cc1OC,"inconclusive: 18.5 µM [inhibitor, single point]",
CCn1c(SCC(=O)NC(=O)c2ccccc2OC)nc2ccccc21,"inconclusive: 10.4 µM [inhibitor, single point]",

SMILES,Potency,"activity change, negative = inhibition"
CCN(CC)C(=O)c1nc[nH]c1C(=O)N1CCN(c2ccccc2)CC1,,inactive: 22.9%
Cn1c(Sc2ccc(Br)cc2)c(C=O)c2ccccc21,"inconclusive: 10.4 µM [inhibitor, single point]",
O=S(=O)(NCC(c1ccco1)N1CCN(c2ccccc2F)CC1)c1ccc2c(c1)OCCO2 (centres undefined),"inconclusive: 18.5 µM [inhibitor, single point]",
CCc1c(C(=O)N2CCOCC2)csc1C,"inconclusive: 18.5 µM [inhibitor, single point]",
COc1ccc(-c2cc(C(F)(F)F)n3nc(C(=O)NCCCN4CCOCC4)cc3n2)cc1,"inconclusive: 9.28 µM [inhibitor, single point]",
CC1CCc2cc(F)cc3c(O)c(C(=O)NCc4ccco4)c(=O)n1c23 (centres undefined),,inactive: 7.57%
O=C(COC(=O)C1CCN(S(=O)(=O)c2cccc3cccnc23)CC1)c1ccc([N+](=O)[O-])cc1,"inconclusive: 0.037 µM [inhibitor, full curve]",
CC(C)N(CC#CC(O)(c1ccccc1)c1ccccc1)C(C)C,"inconclusive: 11.7 µM [inhibitor, single point]",
COc1ccc(CNc2ccc([N+](=O)[O-])cc2C)cc1,"inconclusive: 18.5 µM [inhibitor, single point]",
CS(=O)(=O)c1nc(-c2ccccc2)c(-c2ccccc2)[nH]1,"inconclusive: 4.65 µM [inhibitor, single point]",
O=C(c1ccc(CS(=O)Cc2ccc(Cl)cc2)o1)N1CCN(c2ccccc2)CC1 (centres undefined),"inconclusive: 18.5 µM [inhibitor, single point]",
O=c1c([N+](=O)[O-])cccn1Cc1cccc(Br)c1,,inactive: 26.4%
NC(=S)N/N=C/c1cccnc1,,inactive: -12.3%
CC1CCCN(c2ccc(C(=O)NCc3ccccc3)cn2)C1 (centres undefined),"inconclusive: 0.0029 µM [inhibitor, full curve, poor fit]",
CNC(=S)N/N=C1\CC(c2ccccc2)Oc2ccccc21 (centres undefined),active: 6.57 µM,
Cc1ccc(-n2c(C)nc3c(cnn3-c3ccccc3Cl)c2=O)cc1C,active: 3.7 µM,
Cc1ccc(-c2csc(N3CCN(CCCn4c(-c5ccncc5)nc5ccccc54)CC3)n2)cc1,active: 2.62 µM,
CCCOc1cccc(C(=O)NC(=S)Nc2cccc(NC(=O)c3ccccc3Cl)c2)c1,active: 2.94 µM,
CC/C(=N\NC(=O)c1cc(C)nc2ccccc12)c1ccc(C)s1,,inactive: 0.0778%
CN1CCN(c2ccc(NC(=O)c3ccc(Cl)cc3Cl)cc2)CC1,,inactive: -21.3%
O=C(CN1CCOCC1)Nc1ccccc1-c1ccccc1,"inconclusive: 18.5 µM [inhibitor, single point]",
CCc1ccc(S(=O)(=O)N2c3ccc(C)cc3C3CN(C)CCC32)cc1 (centres undefined),"inconclusive: 9.28 µM [inhibitor, single point]",
CN(C)c1ccc(C2Nc3ccccc3C(=O)N2NS(=O)(=O)c2ccccc2)cc1 (centres undefined),,inactive: 7.21%
